Test results: PubChem BioAssay AID256 (DTP/NCI, 2004)
The list is a part of this screen's results and no random one: it gathers tests that were run many times, whatever their T/C, doses with no T/C, and many T/C values between a quarter and a half above the control. Other doses and runs of a compound stand elsewhere. T/C gives the treated animals as a percentage of the vehicle group. Some doses have a count of surviving animals in place of a T/C: the source holds a T/C of zero for them, seemingly a mark for toxic or unscored doses. Some doses without a T/C left all or most animals alive at the check, yet need not have been tolerated: survival well below the control is almost never listed, so the zero probably covers shortened survival too. Counts of survivors are from the toxicity check (mostly the fifth day) where no day follows; animals may have died later. Schedule codes are those of the source, taken here to give the interval after Q, in days (D) or hours (H), and the number of doses after X. Where survival is the endpoint, this PubChem deposit counts one and a half times the control or more as active, and values a quarter to a half above the control carry no call in these data; other NCI protocols may use other cut-offs. Signs of the kind (2×) count equal records among those shown. Some entries hold several experiments; the values are given in rising order. Some T/C values carry the count of animals alive at the toxicity check (mostly the fifth day); where none is given, no animal had died by that day.

Test system: CD2F1 mice, L1210 leukemia ip, survival T/C
Assay: NCI In Vivo Anticancer Drug Screen. Data for tumor model L1210 Leukemia (intraperitoneal) in CD2F1 (CDF1) mice
Conditions: higher T/C = longer survival
Method in brief: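 Mice carrying a transplanted tumor received test compound or vehicle alone. The value is the measurement in the treated group divided by that in the vehicle-treated control group.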

[1] = T/C endpoint: mean survival time, dose: 400.0 mg/kg/injection, schedule: Q04DX003 (ip), vehicle: saline

## Nc1nc(=S)c2[nH]cnc2[nH]1
T/C endpoint: mean survival time, dose: 0.38 mg/kg/injection, schedule: Q01DX009 (ip), vehicle: acid diluted with saline
  T/C: 143 % of control
T/C endpoint: mean survival time, dose: 0.43 mg/kg/injection, schedule: Q01DX009 (ip), vehicle: clinical formulation
  T/C: 144 % of control
T/C endpoint: mean survival time, dose: 0.43 mg/kg/injection, schedule: Q01DX009 (ip), vehicle: saline
  T/C: 138 % of control
T/C endpoint: mean survival time, dose: 0.5 mg/kg/injection, schedule: Q01DX005 (ip), vehicle: alkali diluted with saline
  T/C: 145 % of control
T/C endpoint: mean survival time, dose: 0.5 mg/kg/injection, schedule: Q01DX009 (ip), vehicle: acid diluted with saline
  T/C: 143 % of control
T/C endpoint: mean survival time, dose: 0.5 mg/kg/injection, schedule: Q01DX009 (ip), vehicle: alkali diluted with saline
  T/C: 135 % of control
T/C endpoint: mean survival time, dose: 0.5 mg/kg/injection, schedule: Q01DX009 (ip), vehicle: saline
  T/C: 143, 154, 158, 171 % of control
T/C endpoint: mean survival time, dose: 0.66 mg/kg/injection, schedule: Q01DX009 (ip), vehicle: saline
  T/C: 143 % of control
T/C endpoint: mean survival time, dose: 0.75 mg/kg/injection, schedule: Q01DX009 (ip), vehicle: acid diluted with saline
  T/C: 147 and 148 % of control
T/C endpoint: mean survival time, dose: 0.98 mg/kg/injection, schedule: Q01DX009 (ip), vehicle: clinical formulation
  T/C: 147 % of control
T/C endpoint: mean survival time, dose: 0.98 mg/kg/injection, schedule: Q01DX009 (ip), vehicle: saline
  T/C: 144 % of control
T/C endpoint: mean survival time, dose: 1.0 mg/kg/injection, schedule: Q01DX009 (ip), vehicle: acid diluted with saline
  T/C: 143 % of control
T/C endpoint: mean survival time, dose: 1.0 mg/kg/injection, schedule: Q01DX009 (ip), vehicle: alkali diluted with saline
  T/C: 131 and 147 % of control
T/C endpoint: mean survival time, dose: 1.0 mg/kg/injection, schedule: Q01DX009 (ip), vehicle: other
  T/C: 128 % of control
T/C endpoint: mean survival time, dose: 1.0 mg/kg/injection, schedule: Q01DX009 (ip), vehicle: saline
  T/C: 159, 160, 193, 195, 203 % of control
T/C endpoint: mean survival time, dose: 1.3 mg/kg/injection, schedule: Q01DX009 (ip), vehicle: alkali diluted with saline
  T/C: 147 % of control
T/C endpoint: mean survival time, dose: 1.8 mg/kg/injection, schedule: Q01DX009 (ip), vehicle: alkali diluted with saline
  T/C: 146 % of control
T/C endpoint: mean survival time, dose: 2.0 mg/kg/injection, schedule: Q01DX005 (ip), vehicle: water
  T/C: 133 % of control
T/C endpoint: mean survival time, dose: 2.0 mg/kg/injection, schedule: Q01DX007 (ip), vehicle: saline
  T/C: 142 % of control
T/C endpoint: mean survival time, dose: 2.0 mg/kg/injection, schedule: Q01DX009 (ip), vehicle: acid diluted with saline
  T/C: 139 % of control
T/C endpoint: mean survival time, dose: 2.0 mg/kg/injection, schedule: Q01DX009 (ip), vehicle: alkali diluted with saline, evaluated on day 30
  T/C: 134 and 145 % of control
T/C endpoint: mean survival time, dose: 2.0 mg/kg/injection, schedule: Q01DX009 (ip), vehicle: alkali diluted with saline, evaluated on day 60
  T/C: 142 % of control
T/C endpoint: mean survival time, dose: 2.0 mg/kg/injection, schedule: Q01DX009 (ip), vehicle: saline
  T/C: 148, 154, 162, 192, 206 % of control
T/C endpoint: mean survival time, dose: 2.2 mg/kg/injection, schedule: Q01DX009 (ip), vehicle: saline
  T/C: 143 % of control
T/C endpoint: mean survival time, dose: 2.25 mg/kg/injection, schedule: Q04DX003 (ip), vehicle: acid diluted with saline
  T/C: 133 and 136 % of control
T/C endpoint: mean survival time, dose: 2.5 mg/kg/injection, schedule: Q04DX003 (ip), vehicle: alkali diluted with saline
  T/C: 139 and 140 % of control
T/C endpoint: mean survival time, dose: 4.0 mg/kg/injection, schedule: Q01DX005 (ip), vehicle: water
  T/C: 132 % of control
T/C endpoint: mean survival time, dose: 4.0 mg/kg/injection, schedule: Q01DX009 (ip), vehicle: alkali diluted with saline
  T/C: 127 and 141 % of control
T/C endpoint: mean survival time, dose: 4.0 mg/kg/injection, schedule: Q01DX009 (ip), vehicle: saline
  T/C: 144, 157, 161, 168, 178 % of control
T/C endpoint: mean survival time, dose: 4.0 mg/kg/injection, schedule: Q04DX003 (ip), vehicle: alkali diluted with saline
  T/C: 132 % of control
T/C endpoint: mean survival time, dose: 4.5 mg/kg/injection, schedule: Q04DX003 (ip), vehicle: acid diluted with saline
  T/C: 146 % of control
T/C endpoint: mean survival time, dose: 5.0 mg/kg/injection, schedule: Q04DX003 (ip), vehicle: alkali diluted with saline
  T/C: 136, 142, 143 % of control
T/C endpoint: mean survival time, dose: 8.0 mg/kg/injection, schedule: Q01DX005 (ip), vehicle: alkali diluted with saline
  T/C: 147 % of control
T/C endpoint: mean survival time, dose: 8.0 mg/kg/injection, schedule: Q04DX003 (ip), vehicle: alkali diluted with saline
  T/C: 134 % of control
T/C endpoint: mean survival time, dose: 10.0 mg/kg/injection, schedule: Q04DX003 (ip), vehicle: alkali diluted with saline
  T/C: 135, 139, 141 % of control
T/C endpoint: mean survival time, dose: 16.0 mg/kg/injection, schedule: Q04DX003 (ip), vehicle: alkali diluted with saline
  T/C: 130 % of control [7 of 8 alive]
T/C endpoint: mean survival time, dose: 18.0 mg/kg/injection, schedule: Q04DX003 (ip), vehicle: acid diluted with saline
  T/C: 149 % of control
T/C endpoint: mean survival time, dose: 20.0 mg/kg/injection, schedule: Q04DX003 (ip), vehicle: alkali diluted with saline
  T/C: 143 % of control (2×)
T/C endpoint: mean survival time, dose: 32.0 mg/kg/injection, schedule: Q04DX003 (ip), vehicle: alkali diluted with saline
  T/C: 129 % of control
T/C endpoint: mean survival time, dose: 40.0 mg/kg/injection, schedule: Q04DX003 (ip), vehicle: alkali diluted with saline
  T/C: 129, 138, 143 % of control
T/C endpoint: mean survival time, dose: 71.0 mg/kg/injection, schedule: Q01DX001 (ip), vehicle: alkali diluted with saline
  survivor count: 2 of 10
T/C endpoint: median survival time, dose: 0.43 mg/kg/injection, schedule: Q01DX009 (ip), vehicle: alkali diluted with saline
  T/C: 136 % of control
T/C endpoint: median survival time, dose: 0.52 mg/kg/injection, schedule: Q01DX009 (ip), vehicle: acid diluted with saline
  T/C: 135 and 141 % of control
T/C endpoint: median survival time, dose: 0.72 mg/kg/injection, schedule: Q01DX009 (ip), vehicle: alkali diluted with saline
  T/C: 136 % of control
T/C endpoint: median survival time, dose: 1.2 mg/kg/injection, schedule: Q01DX009 (ip), vehicle: alkali diluted with saline
  T/C: 140 % of control
T/C endpoint: median survival time, dose: 1.44 mg/kg/injection, schedule: Q01DX009 (ip), vehicle: acid diluted with saline
  T/C: 142 % of control
T/C endpoint: median survival time, dose: 1.62 mg/kg/injection, schedule: Q04DX003 (ip), vehicle: alkali diluted with saline
  T/C: 139 % of control
T/C endpoint: median survival time, dose: 2.0 mg/kg/injection, schedule: Q01DX009 (ip), vehicle: alkali diluted with saline
  T/C: 140 % of control
T/C endpoint: median survival time, dose: 2.4 mg/kg/injection, schedule: Q01DX009 (ip), vehicle: acid diluted with saline
  T/C: 149 % of control
T/C endpoint: median survival time, dose: 3.33 mg/kg/injection, schedule: Q01DX009 (ip), vehicle: alkali diluted with saline
  T/C: 140 % of control
T/C endpoint: median survival time, dose: 10.0 mg/kg/injection, schedule: Q04DX003 (ip), vehicle: alkali diluted with saline
  T/C: 145 % of control
T/C endpoint: median survival time, dose: 27.0 mg/kg/injection, schedule: Q01DX001 (ip), vehicle: alkali diluted with saline
  T/C: 146 % of control
T/C endpoint: median survival time, dose: 40.0 mg/kg/injection, schedule: Q04DX003 (ip), vehicle: alkali diluted with saline
  T/C: 138 % of control
T/C endpoint: median survival time, dose: 60.0 mg/kg/injection, schedule: Q01DX001 (ip), vehicle: alkali diluted with saline
  T/C: 149 % of control
T/C endpoint: median survival time, dose: 80.0 mg/kg/injection, schedule: Q04DX003 (ip), vehicle: alkali diluted with saline
  T/C: 129 % of control [4 of 6 alive]
T/C endpoint: median survival time, dose: 90.0 mg/kg/injection, schedule: Q01DX001 (ip), vehicle: alkali diluted with saline
  survivor count: 4 of 10

## CN(C)N=C1CCCCCC1
T/C endpoint: mean survival time, dose: 300.0 mg/kg/injection, schedule: Q01DX001 (ip), vehicle: saline
  survivor count: 1 of 6

## CCOC(=O)c1ccc(Nc2nnc(-c3c(OC)cc(OC)cc3OC)s2)cc1
T/C endpoint: mean survival time, dose: 100.0 mg/kg/injection, schedule: Q01DX009 (ip), vehicle: saline with Tween-80
  survivor count: 3 of 3

## CCNc1nc(NC(C)C)nc(OC)n1
[1]
  survivor count: 3 of 6

## CC(=O)NNC(=O)c1ccccc1
T/C endpoint: mean survival time, dose: 300.0 mg/kg/injection, schedule: Q01DX009 (ip), vehicle: other
  survivor count: 6 of 6

## O=CN(O)CC(=O)O.[Ni]
T/C endpoint: mean survival time, dose: 50.0 mg/kg/injection, schedule: Q04DX003 (ip), vehicle: saline
  survivor count: 4 of 6
T/C endpoint: mean survival time, dose: 100.0 mg/kg/injection, schedule: Q04DX003 (ip), vehicle: saline
  survivor count: 0 of 6
T/C endpoint: mean survival time, dose: 200.0 mg/kg/injection, schedule: Q04DX003 (ip), vehicle: saline
  survivor count: 0 of 6
[1]
  survivor count: 0 of 6
